In article PMC7862700:
Only a part is listed here, and it is no random draw. For part of these data: At the low end of the ranking, values are background and their order means little. This is one part of the list. For part of these data: Construct or isoform of the protein are uncertain.

How the values were obtained:
Experiment in all cases: DAPPL (digital affinity profiling via proximity ligation, sequencing)
Settings in all cases: 10 mM Tris-HCl pH 7.5, 50 mM NaCl, 1 mM DTT, 4% glycerol, room temperature, 30 min; GST-TFs on glutathione beads, 16-mer random dsDNA library, 0.1% …; high values mean tight binding; double strand, one strand shown; scale: fold enrichment (6-mer frequency, TF over GST control)
[1] = target: T1, GABPA (UniProt Q06546)
T1 sequence: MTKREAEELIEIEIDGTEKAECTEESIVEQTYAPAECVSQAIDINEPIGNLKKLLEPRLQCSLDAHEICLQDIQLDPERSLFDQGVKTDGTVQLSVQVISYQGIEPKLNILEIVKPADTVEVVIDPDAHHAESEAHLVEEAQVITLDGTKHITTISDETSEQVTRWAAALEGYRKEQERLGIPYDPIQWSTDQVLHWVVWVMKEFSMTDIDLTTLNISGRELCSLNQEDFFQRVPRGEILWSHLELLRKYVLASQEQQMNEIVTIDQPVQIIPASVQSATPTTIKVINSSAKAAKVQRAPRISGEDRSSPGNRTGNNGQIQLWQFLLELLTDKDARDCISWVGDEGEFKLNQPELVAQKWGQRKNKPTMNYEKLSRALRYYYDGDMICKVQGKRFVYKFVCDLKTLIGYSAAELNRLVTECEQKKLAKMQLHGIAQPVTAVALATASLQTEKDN

[2] = target: T2, ETS1 (UniProt P14921)
T2 sequence: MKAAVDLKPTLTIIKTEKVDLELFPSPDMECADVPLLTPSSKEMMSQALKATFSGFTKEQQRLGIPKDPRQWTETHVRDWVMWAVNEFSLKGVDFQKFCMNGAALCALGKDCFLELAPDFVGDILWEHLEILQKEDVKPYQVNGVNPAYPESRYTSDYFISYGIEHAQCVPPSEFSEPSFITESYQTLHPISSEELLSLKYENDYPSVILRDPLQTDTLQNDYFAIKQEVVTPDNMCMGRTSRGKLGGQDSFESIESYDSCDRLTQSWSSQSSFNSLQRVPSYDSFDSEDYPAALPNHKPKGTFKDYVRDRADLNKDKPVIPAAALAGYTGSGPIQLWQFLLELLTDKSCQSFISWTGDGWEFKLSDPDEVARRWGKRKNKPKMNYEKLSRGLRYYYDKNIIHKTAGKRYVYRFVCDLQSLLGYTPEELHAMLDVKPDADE

[3] = target: T3, SPDEF (UniProt O95238)
T3 sequence: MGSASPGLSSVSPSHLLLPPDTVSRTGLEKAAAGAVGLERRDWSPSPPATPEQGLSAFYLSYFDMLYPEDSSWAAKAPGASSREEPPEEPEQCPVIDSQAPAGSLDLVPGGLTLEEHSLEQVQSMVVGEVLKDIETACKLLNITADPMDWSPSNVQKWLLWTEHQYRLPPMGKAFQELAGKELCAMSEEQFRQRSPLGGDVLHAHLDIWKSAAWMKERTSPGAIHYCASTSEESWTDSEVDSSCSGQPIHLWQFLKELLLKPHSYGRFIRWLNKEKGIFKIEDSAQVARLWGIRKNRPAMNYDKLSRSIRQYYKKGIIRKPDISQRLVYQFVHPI

Row | Sequence | binding signal [1] | binding signal [2] | binding signal [3]
1 | TAGCCA | 0.9 | 0.832 | 0.891
2 | AGCCAA | 0.839 | 0.89 | 0.802
3 | CAGGTA | 0.849 | 0.81 | 0.882
4 | CCATGA | 0.944 | 0.87 | 0.844
5 | GAGAGC | 0.347 | 0.371 | 0.314
6 | CAGCCG | 0.632 | 0.603 | 0.705
7 | GAGTCT | 0.433 | 0.409 | 0.401
8 | AGCGGG | 0.416 | 0.468 | 0.419
9 | GTTGGG | 0.641 | 0.698 | 0.657
10 | GCTGGG | 0.806 | 0.794 | 0.765
11 | GTGTCA | 0.842 | 0.799 | 0.799
12 | GGACGA | 0.65 | 0.695 | 0.652
13 | AGGCAG | 0.615 | 0.553 | 0.521
14 | CGGCGT | 0.824 | 0.899 | 0.806
15 | GGTCGC | 0.983 | 0.835 | 0.817
16 | AGGCGA | 0.508 | 0.528 | 0.46
17 | GAAGGG | 0.855 | 0.825 | 0.751
18 | ACAGAG | 0.76 | 0.643 | 0.746
19 | ATCCAG | 0.876 | 0.868 | 0.786
20 | TGTGTG | 0.862 | 0.807 | 0.904
21 | CATAGG | 0.728 | 0.708 | 0.747
22 | GGCTGT | 0.843 | 0.84 | 0.794
23 | AGGAGA | 0.211 | 0.208 | 0.197
24 | GGCCGT | 0.404 | 0.405 | 0.414

Row | Sequence | binding signal [1] | binding signal [2] | binding signal [3]
25 | ACGGGG | 0.66 | 0.696 | 0.636
26 | GGGTGG | 0.674 | 0.845 | 0.699
27 | AAGAGA | 0.898 | 0.815 | 0.834
28 | AGGAGG | 0.214 | 0.195 | 0.216
29 | GTGTGG | 0.689 | 0.59 | 0.631
30 | TCGCAG | 0.962 | 0.952 | 0.865
31 | CGGGAG | 0.198 | 0.219 | 0.219
32 | CAGTAG | 0.627 | 0.585 | 0.608
33 | AGGGGT | 0.907 | 0.75 | 0.789
34 | TGAGCC | 0.9 | 0.833 | 0.738
35 | CGGACA | 0.766 | 0.74 | 0.969
36 | CACCAG | 0.699 | 0.736 | 0.713
37 | GTCTGT | 0.906 | 0.896 | 0.922
38 | AGTTAG | 0.8 | 0.862 | 0.777
39 | CTGTCG | 0.517 | 0.559 | 0.562
40 | GTGTGA | 0.608 | 0.585 | 0.625
41 | AACCAG | 0.822 | 0.799 | 0.785
42 | GGTGCG | 0.572 | 0.613 | 0.57
43 | GAGGAA | 0.738 | 0.779 | 0.631
44 | CCGGAG | 0.48 | 0.515 | 0.591
45 | AGAAAG | 0.88 | 0.847 | 0.86
46 | GTGAGG | 0.257 | 0.245 | 0.229
47 | GACAAT | 0.99 | 0.951 | 0.888
48 | AGATCG | 0.477 | 0.46 | 0.413

Row | Sequence | binding signal [1] | binding signal [2] | binding signal [3]
49 | GGGGCC | 0.606 | 0.601 | 0.591
50 | AACCGT | 0.522 | 0.506 | 0.528
51 | GTCATA | 0.694 | 0.756 | 0.79
52 | CACGAG | 0.852 | 0.844 | 0.819
53 | AGAACG | 0.462 | 0.427 | 0.421
54 | CTGGGA | 0.86 | 0.828 | 0.795
55 | CGAGAG | 0.404 | 0.414 | 0.362
56 | CCAGTC | 0.276 | 0.271 | 0.285
57 | TCGGAG | 0.204 | 0.192 | 0.181
58 | CGAGTG | 0.825 | 0.78 | 0.763
59 | AAGGAG | 0.36 | 0.328 | 0.334
60 | GGCAAC | 0.945 | 0.906 | 0.829
61 | GCGTAC | 0.913 | 0.917 | 0.842
62 | CACAGG | 0.905 | 0.904 | 0.853
63 | CCAGAC | 0.721 | 0.671 | 0.638
64 | CAGAGG | 0.637 | 0.587 | 0.594
65 | GGACTA | 0.924 | 0.805 | 0.897
66 | CGTGTC | 0.705 | 0.804 | 0.856
67 | GAGTAT | 0.59 | 0.627 | 0.536
68 | GGGCAA | 0.903 | 0.856 | 0.899
69 | AGGACG | 0.506 | 0.476 | 0.523
70 | TGAGCG | 0.618 | 0.639 | 0.649
71 | AGAGGT | 0.827 | 0.782 | 0.898
72 | GGCGCA | 0.605 | 0.59 | 0.592

Row | Sequence | binding signal [1] | binding signal [2] | binding signal [3]
73 | TGGGGG | 0.761 | 0.758 | 0.712
74 | GTAGGA | 0.576 | 0.587 | 0.567
75 | CCGTGT | 0.511 | 0.499 | 0.619
76 | ATGAGT | 0.671 | 0.648 | 0.661
77 | GTCGCT | 0.845 | 0.708 | 0.713
78 | CGGTAA | 0.986 | 0.904 | 0.96
79 | CGGAGC | 0.396 | 0.381 | 0.415
80 | TGACGT | 0.943 | 0.899 | 0.894
81 | ACGTGG | 0.593 | 0.551 | 0.524
82 | GAGGTG | 0.506 | 0.455 | 0.523
83 | AGAGTC | 0.479 | 0.419 | 0.452
84 | GAGCGA | 0.593 | 0.629 | 0.627
85 | GGCGCT | 0.831 | 0.695 | 0.651
86 | GGACCC | 0.891 | 0.837 | 0.967
87 | TACGTG | 0.716 | 0.714 | 0.712
88 | TGCGTG | 0.586 | 0.632 | 0.671
89 | GGCGCC | 0.74 | 0.652 | 0.597
90 | GATTGG | 0.815 | 0.913 | 0.822
91 | AAGAGG | 0.856 | 0.832 | 0.826
92 | CCTGAG | 0.865 | 0.774 | 0.818
93 | GAGTGT | 0.557 | 0.517 | 0.536
94 | GGTCAT | 0.749 | 0.877 | 0.854
95 | TCAGCG | 0.806 | 0.749 | 0.69
96 | GGAGTC | 0.232 | 0.237 | 0.22

Single records, from the list above:
GGAGTC is listed with binding signal [1]: 0.232; binding signal [2]: 0.237; binding signal [3]: 0.22
GGCGCT is listed with binding signal [1]: 0.831; binding signal [2]: 0.695; binding signal [3]: 0.651
GGTCAT is listed with binding signal [1]: 0.749; binding signal [2]: 0.877; binding signal [3]: 0.854
ATGAGT is listed with binding signal [1]: 0.671; binding signal [2]: 0.648; binding signal [3]: 0.661

Additional records:

Row | Sequence | binding signal [1] | binding signal [2] | binding signal [3]
97 | GTGAAG | 0.609 | 0.643 | 0.605
98 | GACTAG | 0.865 | 0.735 | 0.781
99 | CAGAGT | 0.662 | 0.647 | 0.575
100 | CGGCGG | 0.592 | 0.573 | 0.5
101 | ACCGTA | 0.903 | 0.875 | 0.878
102 | GTAGTG | 0.834 | 0.757 | 0.763
103 | GACGGC | 0.773 | 0.749 | 0.822
104 | ACTAGT | 0.928 | 0.87 | 0.845
105 | GGGCGA | 0.761 | 0.74 | 0.797
106 | CCACGG | 0.901 | 0.893 | 0.915
107 | GCTGTG | 0.627 | 0.663 | 0.646
108 | GAGAGT | 0.321 | 0.325 | 0.345
109 | AGGTGG | 0.604 | 0.583 | 0.577
110 | GCGGAG | 0.236 | 0.277 | 0.266
111 | CGCAGG | 0.855 | 0.788 | 0.907
112 | GCGTGA | 0.245 | 0.288 | 0.274
113 | GCGTAA | 0.879 | 0.857 | 0.81
114 | TAGACC | 0.835 | 0.916 | 0.891
115 | ACGGAC | 0.766 | 0.889 | 0.945
116 | CCAAGG | 0.907 | 0.935 | 0.889
117 | GTAGTC | 0.71 | 0.712 | 0.649
118 | CGGGGA | 0.43 | 0.394 | 0.426
119 | ACGTGT | 0.607 | 0.642 | 0.644
120 | CGGTGG | 0.661 | 0.595 | 0.554
